Some of the results follow.
compound: Cc1ncc(-c2ccnc(Nc3ccc(S(C)(=O)=O)cc3)n2)n1C(C)C; experiment: log2 fold change, soluble protein after heating vs DMSO (PISA); higher = thermal stabilisation; K562 cells, 10 uM, 30 min; active = over 0.2 and 3.5 SD of the protein, either way, in both replicates (recomputed)
Procedure, shortened: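 Soluble protein was quantified by TMTpro 16plex LC-MS/MS after channel sums were equalised. It was obtained as the supernatant after 21,000xg for 90 min from pooled aliquots of K562 cells (2×10^6 cells/mL, 10 μM compound, 30 min) heated for 3 min across 48°C-58°C and extracted in PBS with 0.5% NP-40 at 4°C. Thermal stability values are relative to control samples and come from duplicates. They are given as log2 fold changes.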

Protein sequences, listed by entry. Tags and fused reporters are not part of them. Lines headed by an entry give the natural chain unless they say otherwise; changes in a name come on top.
UniProt Q9Y5Z4: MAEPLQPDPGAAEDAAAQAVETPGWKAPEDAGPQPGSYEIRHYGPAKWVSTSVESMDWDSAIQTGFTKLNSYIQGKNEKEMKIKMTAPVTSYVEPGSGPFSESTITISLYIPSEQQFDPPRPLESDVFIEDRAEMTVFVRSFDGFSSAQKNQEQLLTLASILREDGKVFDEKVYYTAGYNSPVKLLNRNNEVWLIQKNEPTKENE
UniProt O14929: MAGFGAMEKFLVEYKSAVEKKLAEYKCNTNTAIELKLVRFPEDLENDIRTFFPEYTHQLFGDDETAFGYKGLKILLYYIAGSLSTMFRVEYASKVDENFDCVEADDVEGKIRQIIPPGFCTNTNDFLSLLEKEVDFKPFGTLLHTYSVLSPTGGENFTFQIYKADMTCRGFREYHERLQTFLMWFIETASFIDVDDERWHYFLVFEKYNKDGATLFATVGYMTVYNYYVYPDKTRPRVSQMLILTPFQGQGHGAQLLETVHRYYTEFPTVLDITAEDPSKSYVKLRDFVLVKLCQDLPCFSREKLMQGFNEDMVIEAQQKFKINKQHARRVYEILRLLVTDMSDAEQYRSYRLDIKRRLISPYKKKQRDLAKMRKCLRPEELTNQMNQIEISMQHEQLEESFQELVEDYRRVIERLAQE
UniProt Q9UBN7: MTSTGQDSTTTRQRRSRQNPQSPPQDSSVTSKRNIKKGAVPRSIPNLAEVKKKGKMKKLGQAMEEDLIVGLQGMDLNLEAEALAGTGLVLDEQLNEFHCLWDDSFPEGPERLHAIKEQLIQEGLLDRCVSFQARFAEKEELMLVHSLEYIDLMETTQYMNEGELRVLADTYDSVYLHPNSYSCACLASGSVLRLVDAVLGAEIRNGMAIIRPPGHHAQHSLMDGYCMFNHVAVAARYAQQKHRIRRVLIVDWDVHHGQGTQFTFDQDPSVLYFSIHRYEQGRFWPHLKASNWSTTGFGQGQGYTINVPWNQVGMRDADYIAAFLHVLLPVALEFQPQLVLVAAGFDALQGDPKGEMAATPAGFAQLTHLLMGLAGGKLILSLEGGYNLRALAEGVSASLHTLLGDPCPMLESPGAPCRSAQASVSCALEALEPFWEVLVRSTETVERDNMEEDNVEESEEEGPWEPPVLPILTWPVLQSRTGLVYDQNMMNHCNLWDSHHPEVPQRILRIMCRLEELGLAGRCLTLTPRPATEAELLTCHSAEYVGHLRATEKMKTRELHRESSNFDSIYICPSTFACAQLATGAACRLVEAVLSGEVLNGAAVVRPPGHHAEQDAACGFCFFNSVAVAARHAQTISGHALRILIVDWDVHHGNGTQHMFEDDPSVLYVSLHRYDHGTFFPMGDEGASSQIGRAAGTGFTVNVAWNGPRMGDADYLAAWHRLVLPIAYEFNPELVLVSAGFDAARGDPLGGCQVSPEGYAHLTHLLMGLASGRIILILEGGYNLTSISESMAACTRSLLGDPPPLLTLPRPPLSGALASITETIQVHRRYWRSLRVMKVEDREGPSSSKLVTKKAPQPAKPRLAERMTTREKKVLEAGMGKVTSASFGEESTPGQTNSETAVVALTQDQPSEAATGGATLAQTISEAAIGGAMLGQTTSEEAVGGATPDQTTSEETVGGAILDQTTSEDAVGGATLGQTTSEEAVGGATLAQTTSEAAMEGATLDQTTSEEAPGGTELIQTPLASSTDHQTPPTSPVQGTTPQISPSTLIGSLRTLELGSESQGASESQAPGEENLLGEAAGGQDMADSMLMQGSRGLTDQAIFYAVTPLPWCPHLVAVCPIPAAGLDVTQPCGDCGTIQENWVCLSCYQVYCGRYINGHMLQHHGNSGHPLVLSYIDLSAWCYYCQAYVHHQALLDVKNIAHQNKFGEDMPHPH
UniProt P09211: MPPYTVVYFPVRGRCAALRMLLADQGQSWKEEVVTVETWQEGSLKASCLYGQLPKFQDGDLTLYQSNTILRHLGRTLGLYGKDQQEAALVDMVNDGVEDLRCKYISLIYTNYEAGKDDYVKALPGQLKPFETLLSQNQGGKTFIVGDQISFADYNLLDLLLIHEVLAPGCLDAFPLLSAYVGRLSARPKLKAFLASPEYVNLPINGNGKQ
UniProt P02724: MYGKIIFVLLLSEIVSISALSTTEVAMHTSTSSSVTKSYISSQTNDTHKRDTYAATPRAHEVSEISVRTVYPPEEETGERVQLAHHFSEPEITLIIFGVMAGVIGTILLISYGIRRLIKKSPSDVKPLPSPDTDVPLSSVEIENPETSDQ
UniProt Q9H6D7: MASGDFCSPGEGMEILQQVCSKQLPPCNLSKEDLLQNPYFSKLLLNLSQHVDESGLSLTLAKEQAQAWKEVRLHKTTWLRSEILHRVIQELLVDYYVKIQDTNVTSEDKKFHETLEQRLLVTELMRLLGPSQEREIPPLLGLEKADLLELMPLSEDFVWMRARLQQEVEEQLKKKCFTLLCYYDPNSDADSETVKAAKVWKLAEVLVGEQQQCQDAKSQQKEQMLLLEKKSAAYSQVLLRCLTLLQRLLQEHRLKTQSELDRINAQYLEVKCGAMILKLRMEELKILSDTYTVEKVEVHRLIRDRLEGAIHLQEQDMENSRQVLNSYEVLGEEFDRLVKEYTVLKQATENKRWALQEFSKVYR
UniProt Q9NRV9: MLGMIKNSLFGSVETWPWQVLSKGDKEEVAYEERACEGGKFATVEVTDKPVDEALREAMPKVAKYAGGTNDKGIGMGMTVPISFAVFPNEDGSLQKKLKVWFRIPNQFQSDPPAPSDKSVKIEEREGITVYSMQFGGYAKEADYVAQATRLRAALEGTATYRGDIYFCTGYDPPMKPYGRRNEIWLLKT
UniProt P69891: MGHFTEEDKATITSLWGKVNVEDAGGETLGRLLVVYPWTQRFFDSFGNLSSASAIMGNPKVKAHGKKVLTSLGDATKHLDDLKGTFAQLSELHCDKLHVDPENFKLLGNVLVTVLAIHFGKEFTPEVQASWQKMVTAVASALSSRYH
UniProt O00178: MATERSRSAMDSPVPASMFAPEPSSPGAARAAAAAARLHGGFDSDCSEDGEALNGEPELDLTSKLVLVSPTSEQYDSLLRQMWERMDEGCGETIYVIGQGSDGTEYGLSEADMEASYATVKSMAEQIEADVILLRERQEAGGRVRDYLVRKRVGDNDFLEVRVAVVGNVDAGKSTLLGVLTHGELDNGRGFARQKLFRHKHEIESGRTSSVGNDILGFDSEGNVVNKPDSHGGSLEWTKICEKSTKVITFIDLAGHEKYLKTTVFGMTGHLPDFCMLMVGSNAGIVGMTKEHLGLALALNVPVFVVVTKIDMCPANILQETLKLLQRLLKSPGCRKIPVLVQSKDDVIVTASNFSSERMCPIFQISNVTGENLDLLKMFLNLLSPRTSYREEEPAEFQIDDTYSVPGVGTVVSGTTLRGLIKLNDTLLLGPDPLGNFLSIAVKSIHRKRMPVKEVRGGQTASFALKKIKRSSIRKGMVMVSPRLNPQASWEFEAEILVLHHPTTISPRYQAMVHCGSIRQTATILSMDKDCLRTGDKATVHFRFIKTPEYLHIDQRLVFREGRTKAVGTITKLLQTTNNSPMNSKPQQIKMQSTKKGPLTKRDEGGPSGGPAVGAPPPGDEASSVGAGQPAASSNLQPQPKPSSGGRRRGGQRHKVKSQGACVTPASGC
UniProt P52657, whole entry, looked up: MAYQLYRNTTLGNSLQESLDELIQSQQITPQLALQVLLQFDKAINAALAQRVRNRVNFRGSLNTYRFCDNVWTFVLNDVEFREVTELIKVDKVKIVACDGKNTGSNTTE
UniProt P0C0S5, whole entry, looked up: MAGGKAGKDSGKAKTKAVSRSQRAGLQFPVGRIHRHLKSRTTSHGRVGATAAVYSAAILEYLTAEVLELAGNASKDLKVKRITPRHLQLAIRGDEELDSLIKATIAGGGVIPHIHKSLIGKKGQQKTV
UniProt P35269, whole entry, looked up: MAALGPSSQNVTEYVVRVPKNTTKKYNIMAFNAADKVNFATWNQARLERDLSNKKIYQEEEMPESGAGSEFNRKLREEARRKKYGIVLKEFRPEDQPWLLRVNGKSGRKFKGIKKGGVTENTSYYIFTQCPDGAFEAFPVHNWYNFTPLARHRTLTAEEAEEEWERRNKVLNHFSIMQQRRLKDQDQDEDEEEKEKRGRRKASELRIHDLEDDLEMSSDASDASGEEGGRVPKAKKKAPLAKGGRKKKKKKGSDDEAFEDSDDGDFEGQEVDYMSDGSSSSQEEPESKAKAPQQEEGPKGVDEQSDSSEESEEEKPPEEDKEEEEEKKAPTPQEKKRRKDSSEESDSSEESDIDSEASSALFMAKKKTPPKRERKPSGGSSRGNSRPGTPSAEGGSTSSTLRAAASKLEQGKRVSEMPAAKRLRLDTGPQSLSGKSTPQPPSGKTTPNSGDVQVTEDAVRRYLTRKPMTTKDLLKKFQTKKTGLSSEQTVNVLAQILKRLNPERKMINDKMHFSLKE
UniProt P42694: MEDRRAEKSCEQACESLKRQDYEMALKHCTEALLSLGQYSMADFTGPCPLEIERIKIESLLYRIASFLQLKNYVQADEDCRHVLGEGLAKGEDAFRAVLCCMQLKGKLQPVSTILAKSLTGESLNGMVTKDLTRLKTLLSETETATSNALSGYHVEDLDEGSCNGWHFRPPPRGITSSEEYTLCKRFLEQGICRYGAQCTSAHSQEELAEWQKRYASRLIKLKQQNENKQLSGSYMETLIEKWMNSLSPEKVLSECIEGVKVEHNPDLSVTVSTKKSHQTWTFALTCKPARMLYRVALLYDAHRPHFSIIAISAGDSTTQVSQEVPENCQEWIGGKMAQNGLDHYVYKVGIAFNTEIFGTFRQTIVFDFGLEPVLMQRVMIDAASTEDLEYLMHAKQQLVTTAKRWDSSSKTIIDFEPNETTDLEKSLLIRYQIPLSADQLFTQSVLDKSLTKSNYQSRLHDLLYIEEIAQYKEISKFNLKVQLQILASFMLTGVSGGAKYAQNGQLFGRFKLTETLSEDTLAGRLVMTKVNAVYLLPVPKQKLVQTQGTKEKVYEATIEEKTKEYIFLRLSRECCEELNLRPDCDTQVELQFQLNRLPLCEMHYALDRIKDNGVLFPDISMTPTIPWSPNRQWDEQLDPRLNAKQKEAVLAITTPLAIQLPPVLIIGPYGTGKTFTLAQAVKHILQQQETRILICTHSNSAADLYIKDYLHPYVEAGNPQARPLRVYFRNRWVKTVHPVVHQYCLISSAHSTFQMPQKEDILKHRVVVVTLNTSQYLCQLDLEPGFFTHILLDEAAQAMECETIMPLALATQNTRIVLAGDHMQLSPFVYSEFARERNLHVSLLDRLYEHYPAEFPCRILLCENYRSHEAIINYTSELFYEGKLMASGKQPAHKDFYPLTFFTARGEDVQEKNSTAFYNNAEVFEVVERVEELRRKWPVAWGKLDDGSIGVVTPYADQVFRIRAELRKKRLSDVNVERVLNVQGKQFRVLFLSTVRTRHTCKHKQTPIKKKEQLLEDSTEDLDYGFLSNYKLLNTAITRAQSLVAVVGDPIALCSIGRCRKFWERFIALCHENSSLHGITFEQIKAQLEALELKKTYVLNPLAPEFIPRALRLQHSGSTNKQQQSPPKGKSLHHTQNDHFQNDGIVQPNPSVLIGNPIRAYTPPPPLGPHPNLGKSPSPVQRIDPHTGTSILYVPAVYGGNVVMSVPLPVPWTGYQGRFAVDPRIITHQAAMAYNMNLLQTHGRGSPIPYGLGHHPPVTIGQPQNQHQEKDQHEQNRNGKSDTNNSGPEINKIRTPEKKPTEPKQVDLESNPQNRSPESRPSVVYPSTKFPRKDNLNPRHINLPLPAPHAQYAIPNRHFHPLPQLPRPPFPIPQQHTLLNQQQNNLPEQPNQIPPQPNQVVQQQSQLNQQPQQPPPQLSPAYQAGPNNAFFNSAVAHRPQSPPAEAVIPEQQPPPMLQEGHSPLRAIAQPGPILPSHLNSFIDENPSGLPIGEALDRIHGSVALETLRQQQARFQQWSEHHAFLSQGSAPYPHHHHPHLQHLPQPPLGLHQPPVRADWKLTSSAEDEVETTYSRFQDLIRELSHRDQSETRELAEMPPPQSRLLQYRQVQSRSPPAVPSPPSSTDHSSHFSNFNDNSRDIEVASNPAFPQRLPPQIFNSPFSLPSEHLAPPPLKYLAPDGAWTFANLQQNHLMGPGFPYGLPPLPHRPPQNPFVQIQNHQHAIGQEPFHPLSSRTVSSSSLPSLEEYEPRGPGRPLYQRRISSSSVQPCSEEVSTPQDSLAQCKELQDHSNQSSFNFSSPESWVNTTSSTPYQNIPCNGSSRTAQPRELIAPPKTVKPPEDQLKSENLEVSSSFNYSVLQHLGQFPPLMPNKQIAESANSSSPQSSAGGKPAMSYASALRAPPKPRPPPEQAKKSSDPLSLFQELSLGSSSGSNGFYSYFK
UniProt P16402, whole entry, looked up: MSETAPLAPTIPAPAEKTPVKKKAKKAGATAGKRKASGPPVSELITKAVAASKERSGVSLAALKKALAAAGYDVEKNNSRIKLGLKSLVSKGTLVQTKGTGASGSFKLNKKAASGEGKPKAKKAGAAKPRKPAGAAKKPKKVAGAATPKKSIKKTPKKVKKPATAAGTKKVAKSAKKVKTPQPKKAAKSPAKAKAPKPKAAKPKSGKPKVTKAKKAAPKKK

log2 fold change, inactive:
HERC2 (UniProt O95714) 0.079
HAX1 (UniProt O00165) 0.069
HEBP2 (UniProt Q9Y5Z4) 0.004
GYS1 (UniProt P13807) -0.036
HBA1 (UniProt P69905) 0.01
H1-2 (UniProt P16403) -0.09
GTPBP3 isoform 2 (UniProt Q969Y2) -0.006
GSKIP (UniProt Q9P0R6) 0.23
HAT1 (UniProt O14929) -0.025
GTSF1 (UniProt Q8WW33) -0.019
HADH isoform 2 (UniProt Q16836) -0.023
HDHD2 (UniProt Q9H0R4) 0.006
HDAC6 (UniProt Q9UBN7) -0.084
GSTP1 (UniProt P09211) 0.007
H1FX (UniProt Q92522) 0.039
HCLS1 (UniProt P14317) -0.017
GYPA (UniProt P02724) 0.069
HEXB (UniProt P07686) -0.024
HAUS4 (UniProt Q9H6D7) 0.567
HEBP1 (UniProt Q9NRV9) -0.038
GXYLT1 (UniProt Q4G148) -0.004
HEMGN (UniProt Q9BXL5) 0.004
HBG1 (UniProt P69891) 0
HEXIM1 (UniProt O94992) 0.032
HCCS (UniProt P53701) -0.029
GTPBP1 (UniProt O00178) 0.001
GYG1 (UniProt P46976) -0.297
GTF2A2 (UniProt P52657) -0.021
HEATR5B (UniProt Q9P2D3) 0.072
H2AZ1 (UniProt P0C0S5) -0.006
GTF2F1 (UniProt P35269) -0.052
GSK3B isoform 2 (UniProt P49841) 0.124
HDDC3 (UniProt Q8N4P3) 0.017
GSPT1 isoform 3 (UniProt P15170) 0.017
HELZ (UniProt P42694) -0.135
HBZ (UniProt P02008) -0.008
HBS1L isoform 2 (UniProt Q9Y450) 0.035
H1-3 (UniProt P16402) -0.058

Reprinted at random: two records from the list, in no set order.
log2 fold change, inactive:
HDAC6 (UniProt Q9UBN7) -0.084
H1-3 (UniProt P16402) -0.058

Source: the supplement of paper PMC10849652
